From PubChem BioAssay (NCATS)
The shares of active, inactive and inconclusive entries below differ from those in the screen. A potency beside an inconclusive call is a rough fit, not a confirmed value. Activity calls are given as the source filed them. The call rests on the fitted dose curve; in most records, active means well fitted cell-killing curve with a large enough effect; inconclusive means small, poorly fitted or top-dose-only effect, or effect the other way; inactive means no such curve, though single readings can be large or run the other way.

Columns and labels:
[1] = Quantitative High-Throughput drug screen in 47 multiple myeloma cell lines against the NCATS MIPE library collection: L363_DSMZ cell viability assay (AID 1918984); settings: L363 myeloma viability, CellTiter-Glo ATP luminescence, 48 h; viability (% of control): at 45.8 µM (top of the series); further: nearly all actives have a fitted effect of over 40% in size
Procedure, shortened: (§1)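 Myeloma cells (500/well) treated with MIPE 4.0 compounds for 48 h at 37 °C, 5% CO2. Viability read as ATP via CellTiter-Glo luminescence after 5 min at RT; DMSO-only wells = 100%, media-only = 0% viability.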

[2] = Quantitative High-Throughput drug screen in 47 multiple myeloma cell lines against the NCATS MIPE library collection: KMS34_JCRB cell viability assay (AID 1918985); settings: KMS34 myeloma viability, CellTiter-Glo ATP luminescence, 48 h; viability, percent of control: at 45.8 µM (top of the series); further: nearly all actives have a fitted effect of over 40% in size
Procedure, shortened: as §1

[3] = Quantitative High-Throughput drug screen in 47 multiple myeloma cell lines against the NCATS MIPE library collection: OCIMY7_PLB cell viability assay (AID 1918987); settings: OCI-MY7 myeloma viability, CellTiter-Glo ATP, 48 h; viability (% of DMSO): at 45.8 µM (top of the series); further: nearly all actives have a fitted effect of over 65% in size
Procedure, shortened: as §1

[4] = Quantitative High-Throughput drug screen in 47 multiple myeloma cell lines against the NCATS MIPE library collection: OCIMY5_PLB cell viability assay (AID 1918988); settings: OCI-MY5 myeloma viability, ATP luminescence, 48 h; viability, % of control: at 45.8 µM (top of the series); further: nearly all actives have a fitted effect of over 65% in size
Procedure, shortened: as §1

[5] = Quantitative High-Throughput drug screen in 47 multiple myeloma cell lines against the NCATS MIPE library collection: SKMM1_PLB cell viability assay (AID 1919863); settings: SKMM1 myeloma viability, CellTiter-Glo ATP, 48 h; viability: stronger effect = lower value; further: nearly all actives have a fitted effect of over 35% in size
Procedure, shortened: as §1

[6] = Quantitative High-Throughput drug screen in 47 multiple myeloma cell lines against the NCATS MIPE library collection: U266_ATCC cell viability assay (AID 1919864); further: nearly all actives have a fitted effect of over 35% in size
Procedure, shortened: as §1

[7] = Quantitative High-Throughput drug screen in 47 multiple myeloma cell lines against the NCATS MIPE library collection: XG6_PLB cell viability assay (AID 1919865); settings: XG6 myeloma viability, CellTiter-Glo ATP luminescence, 48 h; viability (% of control): at 45.8 µM (top of the series); further: nearly all actives have a fitted effect of over 40% in size
Procedure, shortened: as §1

[8] = Quantitative High-Throughput drug screen in 47 multiple myeloma cell lines against the NCATS MIPE library collection: XG1_PLB cell viability assay (AID 1919866); further: nearly all actives have a fitted effect of over 35% in size
Procedure, shortened: as §1

[9] = Quantitative High-Throughput drug screen in 47 multiple myeloma cell lines against the NCATS MIPE library collection: VP6_DJ cell viability assay (AID 1919867); settings: ATP luminescence, 48 h; viability (% of DMSO): at 45.8 µM (top of the series); further: nearly all actives have a fitted effect of over 40% in size
Procedure, shortened: as §1
Potency means the concentration at half of the fitted maximal effect.

SMILES: COc1nccc(-c2c(-c3ccc(F)cc3)ncn2C2CCC(O)CC2)n1 (stereo unspecified)
- Potency [1]: inconclusive: 0.148 µM [cytotoxic, full curve, poor fit]
- Potency [2]: inconclusive: 2.64 µM [cytotoxic, full curve, poor fit]
- Potency [3]: inactive
- Potency [4]: inconclusive: 18.7 µM [cytotoxic, partial curve, poor fit]
- Potency [5]: active: 0.0296 µM
- Potency [6]: active: 2.96 µM
- Potency [7]: inconclusive: 20.9 µM [cytotoxic, partial curve]
- Potency [8]: inconclusive: 4.18 µM [cytotoxic, full curve, poor fit]
- Potency [9]: inconclusive: 2.35 µM [cytotoxic, full curve, poor fit]

SMILES: Cc1c[nH]c(C=C2C(=O)Nc3ccccc32)c1CCC(=O)O
- Potency [1]: inactive
- Potency [2]: inconclusive: 18.7 µM [cytotoxic, single point]
- Potency [3]: inconclusive: 33.2 µM [cytotoxic, partial curve, poor fit]
- Potency [4]: active: 20.9 µM
- Potency [5]: inconclusive: 18.7 µM [cytotoxic, partial curve, poor fit]
- Potency [6]: inactive
- Potency [8]: inconclusive: 18.7 µM [cytotoxic, partial curve, poor fit]
- Potency [9]: inconclusive: 26.4 µM [cytotoxic, single point]

SMILES: NCCS(=O)(=O)O
- Potency [1]: inconclusive: 8.33 µM [rising, single point]
- Potency [2]: inactive
- Potency [3]: inconclusive: 7.43 µM [cytotoxic, partial curve, poor fit]
- Potency [4]: inconclusive: 37.2 µM [cytotoxic, single point]
- viability [5]: inactive: 109%
- Potency [6]: inactive
- Potency [7]: inactive
- Potency [9]: inconclusive: 0.264 µM [cytotoxic, full curve, poor fit]

SMILES: C=CC[N+]1([C@H]2C[C@H]3[C@@H]4CC[C@H]5C[C@H](O)[C@@H](N6CCOCC6)C[C@]5(C)[C@@H]4CC[C@]3(C)[C@H]2OC(C)=O)CCCC1
- Potency [1]: inconclusive: 1.48 µM [cytotoxic, partial curve, poor fit]
- Potency [2]: inconclusive: 26.4 µM [cytotoxic, single point]
- Potency [3]: inactive
- Potency [4]: inconclusive: 14.8 µM [cytotoxic, partial curve, poor fit]
- Potency [5]: inconclusive: 20.9 µM [cytotoxic, single point]
- Potency [6]: inactive
- Potency [7]: inactive
- Potency [8]: inactive
- Potency [9]: inconclusive: 0.264 µM [cytotoxic, full curve, poor fit]

SMILES: Nc1ncnc2nc(-c3ccc(N4CCOCC4)nc3)cc(-c3cccc(Br)c3)c12
- Potency [1]: inconclusive: 10.5 µM [rising, full curve, poor fit]
- Potency [2]: inconclusive: 18.7 µM [cytotoxic, partial curve, poor fit]
- Potency [3]: inconclusive: 0.332 µM [cytotoxic, full curve, poor fit]
- Potency [4]: active: 16.6 µM
- Potency [5]: inconclusive: 18.7 µM [cytotoxic, partial curve, poor fit]
- Potency [6]: inconclusive: 33.2 µM [cytotoxic, single point]
- Potency [7]: active: 10.5 µM
- Potency [9]: inconclusive: 20.9 µM [cytotoxic, partial curve, poor fit]

SMILES: O=C(OC1C[C@H]2CC[C@@H](C1)[N+]21CCCC1)C(O)(c1ccccc1)c1ccccc1 (stereo partly specified)
- Potency [1]: inactive
- Potency [2]: inconclusive: 0.0026 µM [rising, full curve, poor fit]
- Potency [3]: inactive
- Potency [4]: inactive
- viability [5]: inactive: 138%
- Potency [6]: inconclusive: 0.0662 µM [rising, full curve, poor fit]
- Potency [7]: inactive
- Potency [9]: inconclusive: 0.0047 µM [cytotoxic, full curve, poor fit]

SMILES: CC1(C)O[C@H]2C[C@@H]3[C@H]4CCC5=CC(=O)C=C[C@]5(C)[C@@]4(F)[C@@H](O)C[C@]3(C)[C@]2(C(=O)CO)O1
- Potency [1]: inconclusive: 0.0743 µM [cytotoxic, full curve, poor fit]
- Potency [2]: active: 0.0118 µM
- Potency [3]: inconclusive: 9.35 µM [cytotoxic, partial curve, poor fit]
- Potency [4]: inconclusive: 0.132 µM [cytotoxic, full curve, poor fit]
- viability [5]: inactive: 108%
- Potency [6]: inactive
- Potency [7]: inactive
- Potency [8]: inactive
- Potency [9]: inconclusive: 1.05 µM [cytotoxic, full curve, poor fit]

SMILES: C[C@H]1[C@H](NC(=O)C(=NOC(C)(C)C(=O)O)c2csc(N)n2)C(=O)N1S(=O)(=O)O
- viability (% of control) [1]: inconclusive: 62.3% [cytotoxic]
- Potency [2]: inactive
- Potency [3]: inconclusive: 20.9 µM [cytotoxic, partial curve, poor fit]
- Potency [4]: inconclusive: 0.0935 µM [cytotoxic, full curve, poor fit]
- viability [5]: inactive: 114%
- Potency [6]: active: 14.8 µM
- Potency [7]: inconclusive: 0.935 µM [cytotoxic, full curve, poor fit]
- Potency [8]: inconclusive: 0.001 µM
- Potency [9]: inconclusive: 0.0026 µM [rising, full curve, poor fit]

SMILES: CCOC(=O)C1=C(O)C(=O)N(Cc2ccccc2)C1
- Potency [1]: inconclusive: 37.2 µM [cytotoxic, single point]
- Potency [2]: inconclusive: 20.9 µM [cytotoxic, single point]
- Potency [3]: inconclusive: 0.0332 µM [cytotoxic, full curve, poor fit]
- Potency [4]: inconclusive: 59 µM [cytotoxic, partial curve, poor fit]
- viability [5]: inactive: 107%
- Potency [6]: inactive
- Potency [7]: inactive
- Potency [8]: inactive
- Potency [9]: inconclusive: 0.0074 µM [rising, full curve, poor fit]

SMILES: COc1cccc([C@@H](C)NCCCc2ccccc2Cl)c1
- Potency [1]: inconclusive: 18.7 µM [cytotoxic, partial curve]
- Potency [2]: inactive
- Potency [3]: inconclusive: 33.2 µM [cytotoxic, single point]
- Potency [4]: inactive
- viability [5]: inactive: 122%
- Potency [6]: inconclusive: 37.2 µM [cytotoxic, single point]
- Potency [7]: inconclusive: 37.2 µM [cytotoxic, single point]
- Potency [8]: inconclusive: 37.2 µM [cytotoxic, single point]
- Potency [9]: inconclusive: 5.26 µM [cytotoxic, partial curve, poor fit]

SMILES: COc1ccccc1N1CCN(CC(O)COc2cccc3ccccc23)CC1 (stereo unspecified)
- Potency [1]: inconclusive: 0.0935 µM [cytotoxic, full curve, poor fit]
- Potency [2]: inactive
- Potency [3]: inconclusive: 0.209 µM [cytotoxic, full curve, poor fit]
- Potency [4]: inconclusive: 18.7 µM [cytotoxic, partial curve, poor fit]
- viability [5]: inactive: 119%
- Potency [6]: inactive
- Potency [7]: inconclusive: 13.2 µM [cytotoxic, partial curve, poor fit]
- Potency [9]: inactive

SMILES: c1cnc2cc3c(cc2n1)C1CNCC3C1
- Potency [1]: inconclusive: 3.72 µM [rising, partial curve, poor fit]
- Potency [2]: inactive
- Potency [3]: inconclusive: 20.9 µM [rising, partial curve, poor fit]
- Potency [4]: inactive
- Potency [5]: inconclusive: 0.0037 µM [rising, full curve, poor fit]
- Potency [6]: inactive
- Potency [7]: inconclusive: 20.9 µM [cytotoxic, partial curve, poor fit]
- Potency [9]: inconclusive: 7.43 µM [cytotoxic, single point]

SMILES: Cc1cc(=O)oc2cc(O)ccc12
- Potency [1]: inactive
- Potency [2]: inconclusive: 0.935 µM [cytotoxic, full curve, poor fit]
- Potency [3]: inconclusive: 7.43 µM [rising, single point]
- Potency [4]: inactive
- viability [5]: inactive: 114%
- Potency [6]: inactive
- Potency [8]: inactive
- Potency [9]: inconclusive: 1.87 µM [cytotoxic, partial curve, poor fit]

SMILES: Cc1noc(-c2ccc(CSCCC(=O)O)cc2)c1NC(=O)OC(C)c1ccccc1Cl (stereo unspecified)
- Potency [1]: inconclusive: 0.0017 µM [rising, full curve, poor fit]
- Potency [2]: inactive
- Potency [3]: inconclusive: 0.0074 µM [cytotoxic, full curve, poor fit]
- Potency [4]: inconclusive: 0.0235 µM [rising, full curve, poor fit]
- viability [5]: inactive: 124%
- Potency [6]: inactive
- Potency [7]: inactive
- Potency [8]: inactive
- Potency [9]: inactive

SMILES: CNC(=O)c1ccc(-c2cnc3ncc(Cc4ccc5ncccc5c4)n3n2)cc1F
- Potency [1]: inactive
- Potency [2]: inactive
- Potency [3]: inconclusive: 1.48 µM [cytotoxic, full curve, poor fit]
- Potency [4]: active: 23.5 µM
- viability [5]: inactive: 133%
- Potency [6]: inactive
- Potency [7]: inconclusive: 2.64 µM [cytotoxic, full curve]
- Potency [8]: inconclusive: 7.43 µM [cytotoxic, full curve]
- Potency [9]: inactive

SMILES: O=C(NCCO[N+](=O)[O-])c1cccnc1
- Potency [1]: inconclusive: 0.0264 µM [cytotoxic, full curve, poor fit]
- Potency [2]: inactive
- Potency [3]: inconclusive: 0.0935 µM [rising, full curve, poor fit]
- Potency [4]: inactive
- Potency [5]: inconclusive: 0.0187 µM [rising, full curve, poor fit]
- Potency [6]: inconclusive: 0.0053 µM [rising, full curve, poor fit]
- Potency [8]: inactive
- Potency [9]: inactive
